According to PMC3390401, “Phosphorylation-Dependent Interactions between Crb2 and Chk1 Are Essential for DNA Damage Checkpoint” (PLoS Genetics, 2012):
These are yes or no findings as the source states them, for the method shown. Where a sequence is shown, tags or fusion partners need not be part of it.

Molecular target: Hta1(120–132-pS129) peptide (S. pombe) (UniProt P04909)
Assay: pull-down; Same peptide pull-down repeated; eluates and serial dilutions of Chk1-YFH input examined by immunoblotting with an anti-GFP antibody; both purified

binding: no binding
B1: YFP-Flag-His6 (YFH)-tagged Chk1 (enzyme, UniProt P34208 1-496)
chain: MAQKLDNFPYHIGREIGTGAFASVRLCYDDNAKIYAVKFVNKKHATSCMNAGVWARRMASEIQLHKLCNGHKNIIHFYNTAENPQWRWVVLEFAQGGDLFDKIEPDVGIDEDVAQFYFAQLMEGISFMHSKGVAHRDLKPENILLDYNGNLKISDFGFASLFSYKGKSRLLNSPVGSPPYAAPEITQQYDGSKVDVWSCGIILFALLLGNTPWDEAISNTGDYLLYKKQCERPSYHPWNLLSPGAYSIITGMLRSDPFKRYSVKHVVQHPWLTSSTPFRTKNGNCADPVALASRLMLKLRIDLDKPRLASSRASQNDSGFSMTQPAFKKNDQKELDRVEVYGALSQPVQLNKNIDVTEILEKDPSLSQFCENEGFIKRLAKKAKNFYEICPPERLTRFYSRASRETIIDHLYDSLRLLAISVTMKYVRNQTILYVNLHDKRKCLLQGVIELTNLGHNLELINFIKRNGDPLEWRKFFKNVVSSIGKPIVLTDVSQN
